Construct, isoform or probe ends are uncertain for at least one entry. For some of these results: Results from cells or extracts need not show a direct contact.
Legend:
[1] = target: MAFG (MAFG-Myc or endogenous in cells) (Homo sapiens) (UniProt O15525); assay: activity in cells; conditions: 25 nM transfected in H23R, CDDP resistance index 2.63 to 2.0; H1299 CDDP IC50 10 to 4.5 ug/ml; ROS increased; nuclear staining of cells by aptacytochemistry; protein in cells; single-stranded DNA
[2] = target: MAFG (MAFG-Myc) (Homo sapiens) (UniProt O15525); assay: ELONA; conditions: protein in a lysate after overexpression; label: 5' digoxigenin; single-stranded DNA

## GCGGATGAAGACTGGTGTCGATGCATGTGTAGTGCATTTCGAGCCGTTCTATTGGTGTGCCCTAAATACGAGCAAC [apMAFG6F]
[1]
  functional effect of the aptamer (resistance index): 2
[2]
  binding result: binds

## GCGGATGAAGACTGGTGTCGCGAACCGGGTTACTTTTGTCGCGGGTCGTCGGATCTGTGCCCTAAATACGAGCAAC [apMAFG11F]
[2]
  binding result: binds

## GCGGATGAAGACTGGTGTGCTGTGCTTTGACGACTGTCTAGTGGGTTTTCTTCCCCCGGCCCTAAATACGAGCAAC [apMAFG3F]
[2]
  binding result: binds

Source: patent US20200270310
